# Key:
# The chains behind the UniProt entries cited, without tags or fusion partners. Residues count along the entry.
# UniProt P02763, 19-201: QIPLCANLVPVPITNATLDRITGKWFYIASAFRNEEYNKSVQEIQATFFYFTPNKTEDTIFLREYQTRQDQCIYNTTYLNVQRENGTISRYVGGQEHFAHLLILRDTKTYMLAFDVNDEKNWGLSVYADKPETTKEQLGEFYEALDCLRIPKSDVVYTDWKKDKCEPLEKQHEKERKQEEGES
# [1] = biological target: Desialylated human AAG (AAG − s) (Homo sapiens, UniProt P02763); assay: ITC titration of desialylated AAG (AAG − s) with drugs; assay type: binding; conditions: 310 K
# Experimental: (§1) All chemicals were used without further purification. Immobilized SialEXO® (derived from Akkermansia muciniphilla and expressed in E. Coli) was obtained from Smart Enzymes™ Genovis (Lund, Sweden), and HEPES buffer was obtained from VWR International (Leuven, Belgium). All other reagents were of analytical grade or better. All solutions were prepared immediately before the experiments in order to minimize contamination and/or impair the stability of solutions. The solutions for microcalorimetric titrations were prepared in 25 mM HEPES at pH 7.40 containing 150 mM NaCl (Kemika, Zagreb, Croatia), using doubly distilled water and 5 M NaOH (Kemika, Zagreb, Croatia) for adjusting the pH value. AAG and drug solutions were prepared by dissolving the appropriate amount of solid in the given solvent.
# (§2) The ITC titrations were performed on a MicroCal PEAQ–ITC calorimeter (Malvern Panalytical Ltd., Malvern, UK). The solutions were thoroughly degassed beforehand, under vacuum to avoid any formation of bubbles that might be present in the sample cell. All microcalorimetric measurements were performed at 37 °C. […]
# (§3) All ITC data were analyzed with MicroCal PEAQ-ITC Analysis Software 1.30 using the One Set Sites Fitting Model. […] All p values were calculated using the t-test() function in Microsoft Excel (Microsoft Corporation, Redmond, WA, USA).
# [2] = usual therapeutic peak plasma level; ref 46 lidocaine, 47 diltiazem, 48 clindamycin, 49 warfarin; cited from earlier work
# [3] = biological target: Native human AAG (AAG + s) (Homo sapiens, UniProt P02763); assay: ITC titration of native AAG (AAG + s) with drugs; assay type: binding; conditions: 310 K
# Experimental: as §1, §2, §3
# AAG + s or AAG − s = conditions: calculated, AAG only, no HSA
# From the text: AAG is an acute-phase protein with variable concentration in plasma and this consequently affects the free drug concentration. Hyperquad simulation and speciation software (HySS 4.0.31) was used to calculate the fraction of free vs. bound drug by solving the mass balance equations using the measured binding affinities. […] The plasma concentrations of the drug vary over time depending on the dosing regimen, and steady–state concentrations were used in the model.
# In addition to AAG, human serum albumin (HSA) also plays a critical role in drug binding due to its high plasma concentration. Therefore, to obtain more realistic estimates, the free drug concentration was calculated taking into account the available data on the binding of the studied drugs to HSA.
# AAG+s = conditions: log Ka = log (1/KD), KD in M; ref (2) lidocaine, (3) warfarin, (4) clindamycin; cited from earlier work
compound,measurement,setting,value
"CCN(CC)CC(=O)Nc1c(C)cccc1C [Lidocaine, lidocaine]","N (number of drug binding sites), AAG − s",[1],0.818 ± 0.226
same,"Δr S°, AAG − s",[1],15.9 ± 3.17 J K^−1 mol^−1
same,Cmax,[2],21.3 µM
same,"N (number of drug binding sites), AAG + s",[3],0.810 ± 0.0990
same,"Δr S°, AAG + s",[3],0.725 ± 1.53 J K^−1 mol^−1
same,Decrease of free plasma concentration with AAG − s vs AAG + s,AAG + s or AAG − s,20–30%
same,Reference AAG+s log KA,AAG+s,5.18

# From article PMC10218007, “Potential Clinically Relevant Effects of Sialylation on Human Serum AAG-Drug Interactions Assessed by Isothermal Titration Calorimetry: Insight into Pharmacoglycomics?” (International Journal of Molecular Sciences, 2023)
